Results deposited as PubChem BioAssay AID1224830 (NIAID, 2016)

- Test: 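Regulators of TLR4 signalling towards TNF-alpha in macrophage-like cells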 (primary screen)
- Cell system: human THP-1 monocytic leukaemia cells, TNF dual-luciferase reporter clone, PMA-differentiated to macrophage-like cells
- Reagent: siRNA pool against human genes, 50 nM
- Time to read-out: LPS for 4 h, given about 3 days after siRNA transfection
- Challenge: bacterial LPS (TLR4 ligand), 10 ng/ml
- Measurement: 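TNF firefly reporter luminescence divided by renilla, normalised to the plate median, then turned into a robust z-score for each replicate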
- Direction: TNF reporter robust z-score: higher = stronger TNF reporter response to LPS
- Call rule: 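a well is active when its z-score exceeds 2.8 or falls below -1.5; control wells carry no call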
The deposit covers about 18,000 reagents; shown is a part drawn at random. Of all reagents, about 2,900 (16%) got an active call. 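Calls are made per well; low scores hint the gene aids the LPS response, high scores that it dampens it.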 Repeated entries: four replicate wells of each siRNA pool. No sequences are given here.

no.	target gene	PubChem SID	TNF reporter robust z-score	activity call
1	CD5L (CD5 molecule like)	SID315447763	-1.01	inactive
2	CD5L (CD5 molecule like)	SID315447763	-0.24	inactive
3	CD5L (CD5 molecule like)	SID315447763	-0.66	inactive
4	GRXCR1 (glutaredoxin and cysteine rich domain containing 1)	SID315464547	-0.13	inactive
5	GRXCR1 (glutaredoxin and cysteine rich domain containing 1)	SID315464547	0.44	inactive
6	GRXCR1 (glutaredoxin and cysteine rich domain containing 1)	SID315464547	0.53	inactive
7	GRXCR1 (glutaredoxin and cysteine rich domain containing 1)	SID315464547	0.94	inactive
8	DENND6B (DENN domain containing 6B)	SID315464869	2.51	inactive
9	DENND6B (DENN domain containing 6B)	SID315464869	4.07	active
10	DENND6B (DENN domain containing 6B)	SID315464869	2.05	inactive
11	DENND6B (DENN domain containing 6B)	SID315464869	0.66	inactive
12	TSSK2 (testis specific serine kinase 2)	SID315455370	-0.69	inactive
13	TSSK2 (testis specific serine kinase 2)	SID315455370	1.47	inactive
14	TSSK2 (testis specific serine kinase 2)	SID315455370	-0.65	inactive
15	TSSK2 (testis specific serine kinase 2)	SID315455370	-0.63	inactive
16	SLC6A1	SID315451468	-1.12	inactive
17	SLC6A1	SID315451468	-0.95	inactive
18	SLC6A1	SID315451468	-1.05	inactive
19	SLC6A1	SID315451468	-0.26	inactive
20	FEV (FEV transcription factor, ETS family member)	SID315457136	-0.24	inactive
21	FEV (FEV transcription factor, ETS family member)	SID315457136	-0.21	inactive
22	FEV (FEV transcription factor, ETS family member)	SID315457136	-0.46	inactive
23	FEV (FEV transcription factor, ETS family member)	SID315457136	-0.6	inactive
24	CLEC4F (C-type lectin domain family 4 member F)	SID315462826	0.45	inactive
25	CLEC4F (C-type lectin domain family 4 member F)	SID315462826	1.14	inactive
26	CLEC4F (C-type lectin domain family 4 member F)	SID315462826	0.3	inactive
27	CLEC4F (C-type lectin domain family 4 member F)	SID315462826	0.77	inactive
28	CITED4 (Cbp/p300 interacting transactivator with ED-rich tail 4)	SID315462792	2.6	inactive
29	CITED4 (Cbp/p300 interacting transactivator with ED-rich tail 4)	SID315462792	1.93	inactive
30	CITED4 (Cbp/p300 interacting transactivator with ED-rich tail 4)	SID315462792	1.76	inactive
31	CITED4 (Cbp/p300 interacting transactivator with ED-rich tail 4)	SID315462792	2.81	active
32	COX5B (cytochrome c oxidase subunit 5B)	SID315448047	-0.72	inactive
33	COX5B (cytochrome c oxidase subunit 5B)	SID315448047	-0.31	inactive
34	COX5B (cytochrome c oxidase subunit 5B)	SID315448047	0.2	inactive
35	COX5B (cytochrome c oxidase subunit 5B)	SID315448047	0.65	inactive
36	GLIPR1L1 (GLIPR1 like 1)	SID315463534	-0.24	inactive
37	GLIPR1L1 (GLIPR1 like 1)	SID315463534	-0.17	inactive
38	GLIPR1L1 (GLIPR1 like 1)	SID315463534	0.32	inactive
39	GLIPR1L1 (GLIPR1 like 1)	SID315463534	0.53	inactive
40	SLC52A3	SID315461187	0.81	inactive
41	SLC52A3	SID315461187	1.51	inactive
42	SLC52A3	SID315461187	-0.24	inactive
43	SLC52A3	SID315461187	0.7	inactive
44	CHURC1 (churchill domain containing 1)	SID315460930	0.16	inactive
45	CHURC1 (churchill domain containing 1)	SID315460930	0.41	inactive
46	CHURC1 (churchill domain containing 1)	SID315460930	0.03	inactive
47	CHURC1 (churchill domain containing 1)	SID315460930	1.01	inactive
